# The list shows a part of the results.
# Sequences of proteins named here, by UniProt entry; tags and fusion partners are left off.
# UniProt Q0JBA9, entry or part of it: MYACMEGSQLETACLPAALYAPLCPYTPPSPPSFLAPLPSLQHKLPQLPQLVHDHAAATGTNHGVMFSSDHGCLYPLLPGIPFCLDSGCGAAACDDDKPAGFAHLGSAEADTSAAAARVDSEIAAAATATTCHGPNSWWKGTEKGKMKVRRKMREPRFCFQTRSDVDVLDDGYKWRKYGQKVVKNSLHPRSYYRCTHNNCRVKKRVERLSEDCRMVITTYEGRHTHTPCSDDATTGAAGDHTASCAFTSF
# Molecular target: OsWRKY34 (Oryza sativa, UniProt Q0JBA9 1-250)
# Assay: protein-binding microarray (RPBM); PBS, 2% BSA, 51.3 ng/ul salmon testes DNA, 50 uM zinc acetate, 200 nM TF, 25 C, 1 h; high values mean tight binding
# Details: protein: recombinant; tags: N-terminal polyhistidine and DsRed monomer fusion (pET32a); label: CyDye5-dUTP incorporated in the synthesized complementary strand; 3' TTTTT single-stranded linker to array surface; dsDNA, one strand shown
# Procedure, shortened: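 Transcription factors were each fused at the N-terminus to a polyhistidine tag plus DsRed and expressed in E. coli BL21-CodonPlus before Ni–NTA purification. Binding to a double-stranded custom Agilent array was carried out with 200 nM protein at 25 °C for 1 h in PBS, 2% BSA, salmon testes DNA and 50 µM zinc acetate. The binding signal is per-feature fluorescence intensity, in arbitrary units, on an Axon 4000B scanner.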
row,Sequence,binding signal
1,TCGCTCGCCGCCGCTCCGCCGCCGCGCTCGCGCTCCACTGCGGAGTCACCTAGTGCAG,8640 fluorescence intensity (a.u.)
2,CTTTCTACTCGCAGCTACTGCCTTCGGCTGTGTTTAGATCCGGAGTCACCTAGTGCAG,10000 fluorescence intensity (a.u.)
3,CACTTGACTACTTGTCCATATCCACCTTGATTTTCGCTGACGGAGTCACCTAGTGCAG,8220 fluorescence intensity (a.u.)
4,GGTGAGCGTGTGCATGTTATGAGTCCATGCGTTTGTACTGCGGAGTCACCTAGTGCAG,9590 fluorescence intensity (a.u.)
5,TTCAAAGCTGCCTCTGTGTTAGCCCTTTGCTTAGCTACTACGGAGTCACCTAGTGCAG,8400 fluorescence intensity (a.u.)
6,CTCAATCTGGACCATTCATCTTTGATACACGCGTTTCCTACGGAGTCACCTAGTGCAG,8960 fluorescence intensity (a.u.)
7,TATTCCGAGCCGCCCCATCCACCCTACCCTCTAAACAAACCGGAGTCACCTAGTGCAG,8720 fluorescence intensity (a.u.)
8,ATACATCATATTCCATCTTCAACTTATCTTCATGTCATCACGGAGTCACCTAGTGCAG,10400 fluorescence intensity (a.u.)
9,GTAGCATGTAAATATCATTACTTTTTGTTGTTGTGACATTCGGAGTCACCTAGTGCAG,8970 fluorescence intensity (a.u.)
10,TTCACATTTCATTTAATTCTAGCAATTCATTTATTTCTTTCGGAGTCACCTAGTGCAG,10400 fluorescence intensity (a.u.)
11,TTTTCGCCGTTCTTTCCGGTTATTTTGCCATCGCCTTTTTCGGAGTCACCTAGTGCAG,12600 fluorescence intensity (a.u.)
12,GCCCTGCTTCTCCTTCTCTGCCTCAACCTACCGCCGAGACCGGAGTCACCTAGTGCAG,13200 fluorescence intensity (a.u.)
13,TTTGCAGCAGCCAGCCTCGGATCGTCGTCTCTCCACCTCTCGGAGTCACCTAGTGCAG,9720 fluorescence intensity (a.u.)
14,AGAGGGTTTTGCTGCCTTTGCGTTGCGGCGTGGAGGGAGACGGAGTCACCTAGTGCAG,8240 fluorescence intensity (a.u.)
15,ATCCTTTCTTACACTTTCATAACTCGTGAAATGCCGAGTTCGGAGTCACCTAGTGCAG,11200 fluorescence intensity (a.u.)
16,ATCGTGAAGACGGGTGCGGTCTAGCTCTACTCCTTCGTTCCGGAGTCACCTAGTGCAG,9800 fluorescence intensity (a.u.)
17,ACGCACGACGCCTCTTCTCCTCTCGCCGTCTCGCGCAATCCGGAGTCACCTAGTGCAG,10500 fluorescence intensity (a.u.)
18,ATAGTTTAGTTGCTATTTGTGCAATTCTTTCCCTAATTATCGGAGTCACCTAGTGCAG,9740 fluorescence intensity (a.u.)
19,GGGACCTTTGACCTGCTTCCTACTTGTGTCGTCCTCGAGCCGGAGTCACCTAGTGCAG,8120 fluorescence intensity (a.u.)
20,CTATGTTTTCTGCCTTCCTATCTTTCATTCAATCCTGTGTCGGAGTCACCTAGTGCAG,8550 fluorescence intensity (a.u.)
21,TGACATTTCTGGATGGCTTTGACTCATTCATTACATTCACCGGAGTCACCTAGTGCAG,8780 fluorescence intensity (a.u.)

row,Sequence,binding signal
1,AGATACGCTTACTTGCTTCGTAGTCTTATTCTTTTTTAAGCGGAGTCACCTAGTGCAG,10600 fluorescence intensity (a.u.)
2,CCACCTTGTTTCTTTCTCTCGTTCTCCTCCTCTCCGTCACCGGAGTCACCTAGTGCAG,8780 fluorescence intensity (a.u.)
3,CTCAACGCTCACGTCGTATCACGTGCCATCCCGCGTCTCCCGGAGTCACCTAGTGCAG,10700 fluorescence intensity (a.u.)
4,AACTCAATCAAACACCACTGGTCTCATAACGCTGCTGTCACGGAGTCACCTAGTGCAG,11600 fluorescence intensity (a.u.)
5,GGATAAGGGGAATTAATTAGGGTAAGTTAATAGGGTTCTACGGAGTCACCTAGTGCAG,10700 fluorescence intensity (a.u.)
6,CCCGACCACTCCCACTATTTGCTGCTCCTCCGTTTCAAAACGGAGTCACCTAGTGCAG,9900 fluorescence intensity (a.u.)
7,ATAGTAGTGATGCCCTGACCCATAGGTCCTACACAATTTTCGGAGTCACCTAGTGCAG,10500 fluorescence intensity (a.u.)
8,TAGTTTCGCTTCACGGTGCATGGTTGATTCGCTGTCGTCTCGGAGTCACCTAGTGCAG,8390 fluorescence intensity (a.u.)
9,TTTATCATTTGTTTTTTCTTCGGTACCTCGACTAATTACCCGGAGTCACCTAGTGCAG,8270 fluorescence intensity (a.u.)
10,GTCGTTGTTGCAACCGCGAGCCTCGCTCGTCTCCTCTTCCCGGAGTCACCTAGTGCAG,8320 fluorescence intensity (a.u.)
11,ACCCCGGCCCTATCCCTATGTATGTACACGACGACGACGTCGGAGTCACCTAGTGCAG,14900 fluorescence intensity (a.u.)
12,GGGTTACGGCTGCAAGCTTGTTCTCTCCAGATGGGGAGTTCGGAGTCACCTAGTGCAG,10400 fluorescence intensity (a.u.)
13,CAGGCAGGGCAGGGAAGGGCGTTGGTGGTTCATCTCCTCTCGGAGTCACCTAGTGCAG,9900 fluorescence intensity (a.u.)
14,TATTTTTTCGCCTTTTCTGTTCGTGTGTTCGTGGTGGAGTCGGAGTCACCTAGTGCAG,8360 fluorescence intensity (a.u.)
15,TTAAATTAATCTGGGTTTTTTTTTTCTCGTATTCTATTTTCGGAGTCACCTAGTGCAG,8270 fluorescence intensity (a.u.)
16,AAGCGTGAGGGATGTTTAATTGGGCGTAACTGCTCCCGAACGGAGTCACCTAGTGCAG,8160 fluorescence intensity (a.u.)
17,TTTGGTTCCTTTGAGTTTTTGATCTGTTTCATCCAAAATCCGGAGTCACCTAGTGCAG,8100 fluorescence intensity (a.u.)
18,CGTTGGATAATCTCTAGTACATGTATATACATTTGGCTCTCGGAGTCACCTAGTGCAG,8220 fluorescence intensity (a.u.)
19,TAGTTGGTCTATCTCTATATAAGCTCACACAAATCTGATCCGGAGTCACCTAGTGCAG,9030 fluorescence intensity (a.u.)
20,TATATATATATATACCCCTGAGACTCAATACAACGTGTCCCGGAGTCACCTAGTGCAG,9910 fluorescence intensity (a.u.)
21,AGTCACGTCACCTTTTCACGTGGGACCCACCTGGAAAACCCGGAGTCACCTAGTGCAG,9820 fluorescence intensity (a.u.)

row,Sequence,binding signal
1,GACACTTTAATTTCCTCATCCTTGTGGCATCATTTTTGCACGGAGTCACCTAGTGCAG,12200 fluorescence intensity (a.u.)
2,CGCGCCATCTCCATGTCATCGTCGTCGTCTGTGTCCCCTTCGGAGTCACCTAGTGCAG,10700 fluorescence intensity (a.u.)
3,TGGGTAAAACATGGGCACTCATTAGCCACCTCCATGCTTTCGGAGTCACCTAGTGCAG,8190 fluorescence intensity (a.u.)
4,ATTTAAGTATAAAATTTTGACTAGTCCTTACATGAAACGTCGGAGTCACCTAGTGCAG,9640 fluorescence intensity (a.u.)
5,ACTGATCAGCTCCTATATTGTACCGTAACAATCCATGTCACGGAGTCACCTAGTGCAG,8240 fluorescence intensity (a.u.)
6,TCTCCGACCAGGACCTCAACCCGGGCGCCTACCGACTCATCGGAGTCACCTAGTGCAG,8760 fluorescence intensity (a.u.)
7,CCTTTGTGGTCTGTTCTGTGTTATTCATTTTTCGGAGTTCCGGAGTCACCTAGTGCAG,8520 fluorescence intensity (a.u.)
8,CTTTTCTCCCTTCCACTTGCCGCTGTTGTTTACTCTTTCCCGGAGTCACCTAGTGCAG,9800 fluorescence intensity (a.u.)
9,GGGATGGATGTGCTGGGTTGGTGGCTGGTTGGCTGGCCGGCGGAGTCACCTAGTGCAG,11000 fluorescence intensity (a.u.)
10,AGTTGAGAGATCCGTTGTATCTGGTTTTTCGGTTGAGGGACGGAGTCACCTAGTGCAG,8390 fluorescence intensity (a.u.)
11,ACCTGTCTGTATTTTTGTACACTCTGCTGCTTGCCCTTCTCGGAGTCACCTAGTGCAG,10500 fluorescence intensity (a.u.)
12,AGCTGTGAGTTTCTGTGTCCAATGTTTGACCGTCAATCTTCGGAGTCACCTAGTGCAG,12100 fluorescence intensity (a.u.)
13,TTTTTTTTTTATCCGTCCCTACTCCTCGCACCTTAAAAATCGGAGTCACCTAGTGCAG,10300 fluorescence intensity (a.u.)
14,CCCACACCCTTCTTTTGTCGCGCTGATCCCCAGACGCCGGCGGAGTCACCTAGTGCAG,12900 fluorescence intensity (a.u.)
15,TTTCCAACCAACTGATCTTTCATTCCATCATTCTTTCTTTCGGAGTCACCTAGTGCAG,9870 fluorescence intensity (a.u.)
16,GTTTGACTTTTTTACTAGTCAAACTTATTTAAGTTTGACCCGGAGTCACCTAGTGCAG,17500 fluorescence intensity (a.u.)
17,GTTGGGTCTTGGCTTTCTCCCCTCTCTCTCTCCCTCTTGTCGGAGTCACCTAGTGCAG,8580 fluorescence intensity (a.u.)
18,AAGGGTTGGGCATCATTGCAGCATAACTAAACACACCGTACGGAGTCACCTAGTGCAG,10200 fluorescence intensity (a.u.)
19,AAGTTTAGGGTGAGCAATGTCTGGTTTTCGGGTTCAGGGGCGGAGTCACCTAGTGCAG,13300 fluorescence intensity (a.u.)
20,GTTTTTGTTTGTTGTTGATGATATGATCCAGCACTGATGTCGGAGTCACCTAGTGCAG,8040 fluorescence intensity (a.u.)
21,CACTACCTCCAACTAACTAACCACCTTTTCTCTCCACTGCCGGAGTCACCTAGTGCAG,8250 fluorescence intensity (a.u.)

# Individual results from the results shown.
# binding signal with CTATGTTTTCTGCCTTCCTATCTTTCATTCAATCCTGTGTCGGAGTCACCTAGTGCAG reads 8550 fluorescence intensity (a.u.)
# binding signal with ATAGTAGTGATGCCCTGACCCATAGGTCCTACACAATTTTCGGAGTCACCTAGTGCAG reads 10500 fluorescence intensity (a.u.)
# binding signal with AGCTGTGAGTTTCTGTGTCCAATGTTTGACCGTCAATCTTCGGAGTCACCTAGTGCAG reads 12100 fluorescence intensity (a.u.)
# binding signal with TTTTTTTTTTATCCGTCCCTACTCCTCGCACCTTAAAAATCGGAGTCACCTAGTGCAG reads 10300 fluorescence intensity (a.u.)
# binding signal with GTCGTTGTTGCAACCGCGAGCCTCGCTCGTCTCCTCTTCCCGGAGTCACCTAGTGCAG reads 8320 fluorescence intensity (a.u.)
# binding signal with GACACTTTAATTTCCTCATCCTTGTGGCATCATTTTTGCACGGAGTCACCTAGTGCAG reads 12200 fluorescence intensity (a.u.)
# binding signal with TTCACATTTCATTTAATTCTAGCAATTCATTTATTTCTTTCGGAGTCACCTAGTGCAG reads 10400 fluorescence intensity (a.u.)

# Remaining list, next part:

row,Sequence,binding signal
1,TCACCTGCCTGCCCCTGCGCTGCGCCGGCTGCGCCTTCTGCGGAGTCACCTAGTGCAG,10800 fluorescence intensity (a.u.)
2,GCGGTAGGGTTCAGTACTCTATGCTCAAGTCCTCTTCCTACGGAGTCACCTAGTGCAG,8670 fluorescence intensity (a.u.)
3,CACCATACTAAGTACTAGAGTACCTAACTTCAGTATCTTCCGGAGTCACCTAGTGCAG,9110 fluorescence intensity (a.u.)
4,GTACTTTGTTCGTTTCAAAACGATACTTTACCTAATTTTACGGAGTCACCTAGTGCAG,8590 fluorescence intensity (a.u.)
5,CATCCACGCAACCCTGCAGCAACGGTCACTAAACCAATCCCGGAGTCACCTAGTGCAG,8270 fluorescence intensity (a.u.)
6,TCACCGTTTAGTCCTTGATGCACCACCTTCTCCGACCTCTCGGAGTCACCTAGTGCAG,13000 fluorescence intensity (a.u.)
7,TCCATCTTCTTCTTGCCACTCTGAATTCAGCTTCAGGAGCCGGAGTCACCTAGTGCAG,9250 fluorescence intensity (a.u.)
8,AAAAAAACCCTTTGCAACACTGCTCCACTCCATCACTAGTCGGAGTCACCTAGTGCAG,8630 fluorescence intensity (a.u.)
9,AATGTCGGTTTCATTGCAGTTTATTCTTTGTCGTTGGCTTCGGAGTCACCTAGTGCAG,9760 fluorescence intensity (a.u.)
10,CCCTTTCATCGCGTGGCTTTCCCACACATCGCTGTGTCTCCGGAGTCACCTAGTGCAG,12300 fluorescence intensity (a.u.)
11,CGCCATTAGCCCATTATTCATGTGAATACTTCTATTCACACGGAGTCACCTAGTGCAG,8760 fluorescence intensity (a.u.)
12,CGATCGATTTCTTTGGGATTCTTGAGCTCATCCATCCATGCGGAGTCACCTAGTGCAG,8590 fluorescence intensity (a.u.)
13,AGCAGCTCTCACGTTTCACTGTTCGCCTCTGCCATTCTCCCGGAGTCACCTAGTGCAG,9600 fluorescence intensity (a.u.)
14,AAGCATATACTTACATCTTGGGAGGACCAAATTATAACAGCGGAGTCACCTAGTGCAG,8080 fluorescence intensity (a.u.)
15,ATATATTGTTTCCTTTTTTCTTTTCTTTTTTTGGTTTTAACGGAGTCACCTAGTGCAG,10300 fluorescence intensity (a.u.)
16,GTTCCGTTCGTTCTCCCACGGCCACGGCCTCACCTTTACCCGGAGTCACCTAGTGCAG,8270 fluorescence intensity (a.u.)
17,TTTCAGGTACGATGTTTCTCCAGTTCTAGTATATTCCTTACGGAGTCACCTAGTGCAG,8880 fluorescence intensity (a.u.)
18,ATCCCGCGCCTCCTCGCTTCTCCTCCACACCCACGAATCCCGGAGTCACCTAGTGCAG,9570 fluorescence intensity (a.u.)
19,AGCCTATCGTATTCCGCGCGCACGCTTCCCAAACTACTAACGGAGTCACCTAGTGCAG,11600 fluorescence intensity (a.u.)
20,GTCCAATCCCGCTAGCTCCATCGCCTCCAGTTTAATCATCCGGAGTCACCTAGTGCAG,9010 fluorescence intensity (a.u.)
21,GACCAGCGACATCAGCGTGCGCGCGGGGACAGGGTTGGGGCGGAGTCACCTAGTGCAG,8910 fluorescence intensity (a.u.)

# Source: PMC7819943, “Rice protein-binding microarrays: a tool to detect cis-acting elements near promoter regions in rice”
